Data: paper PMC5393633
Construct, isoform or probe ends are uncertain for at least one entry. At least one result comes from cells or an extract, where the contact may be indirect. No signal at the amounts used counts as a negative. Protein sequences can lack the tags named with them.

Columns and labels:
Odd-paired (Opa) [1] = molecular target: T1, Odd-paired (Opa) (UniProt P39768); test: EMSA; details: poly(dI-dC), EMSA: 10 mM Tris-HCl pH 8.0, 25 mM KCl, 1 mM DTT, 1 ug poly-dIdC, 2.5% glycerol, 0.05% Triton X-100, 0.2 mM MgCl2, 20 min room temperature, 6% native TBE-PAGE, protein in a lysate after overexpression, protein details: C-terminal OLLAS and 6xHis
T1 sequence (looked up, limits assumed): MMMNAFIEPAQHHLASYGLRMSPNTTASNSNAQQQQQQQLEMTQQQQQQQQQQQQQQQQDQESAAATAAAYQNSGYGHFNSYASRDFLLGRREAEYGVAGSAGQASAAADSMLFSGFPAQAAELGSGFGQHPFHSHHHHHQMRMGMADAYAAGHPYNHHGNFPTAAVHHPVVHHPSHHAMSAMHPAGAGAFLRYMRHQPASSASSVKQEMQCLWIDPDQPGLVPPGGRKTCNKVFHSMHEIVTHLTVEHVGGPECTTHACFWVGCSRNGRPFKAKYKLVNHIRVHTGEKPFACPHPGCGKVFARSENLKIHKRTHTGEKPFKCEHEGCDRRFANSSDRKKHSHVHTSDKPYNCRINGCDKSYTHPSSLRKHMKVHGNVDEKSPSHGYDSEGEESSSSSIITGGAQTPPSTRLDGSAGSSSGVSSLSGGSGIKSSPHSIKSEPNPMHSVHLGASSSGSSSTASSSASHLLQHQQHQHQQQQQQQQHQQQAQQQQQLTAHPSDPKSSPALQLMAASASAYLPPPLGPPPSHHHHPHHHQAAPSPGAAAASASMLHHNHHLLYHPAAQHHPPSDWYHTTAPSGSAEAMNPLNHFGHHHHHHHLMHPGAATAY

Odd-paired (Opa) [2] = molecular target: T1, Odd-paired (Opa); test: competition with a labelled probe; details: 100x unlabeled mutant vs labeled wild-type probe; EMSA: 10 mM Tris-HCl pH 8.0, 25 mM KCl, 1 mM DTT, 1 ug poly-dIdC, 2.5% glycerol, 0.05% Triton X-100, 0.2 mM MgCl2, 20 min room temperature; 6% native TBE-PAGE; protein in a lysate after overexpression; protein details: C-terminal OLLAS and 6xHis; label: 3'-end biotin (unlabeled as competitor)
[3] = reversed by 100x unlabeled probe, label: 3'-end biotin
[4] = labeled mutant probe, label: 3'-end biotin (unlabeled as competitor)

| Sequence | binding result (Odd-paired (Opa) [1]; [3]) | binding result (Odd-paired (Opa) [1]; [4]) | binding result (Odd-paired (Opa) [2]) |
| --- | --- | --- | --- |
| GTGCAGCCTTTAGTCTGACCCCTGACCTCCGGCTGGCCTACCTGCTGTTG (double strand) [Opa_JASPAR] | binds |  |  |
| GTGCAGCCTTTAGTCTGACCCCTGTCCTCTGGCTGGCCTACCTGCTGTTG (double strand) [Opa_JASPAR mutant] |  | no binding | no binding |
| TGACTTGTGCGTTTCACCAATCGCCGCAGGGAAGTGGCGTCACGGCCTGG (double strand) [Opa_SELEX mutant] |  | no binding | no binding |
| TGACTTGTGCGTTTCACCAATCGCCGCGGGGATGTGGCGTCACGGCCTGG (double strand) [Opa_SELEX] | binds |  |  |
